The whole screen tested about 320,000 compounds, of which about 22,000 (6.9%) were called active. Inconclusive results, whose numbers are uncertain, are shown with a selection of clear calls. The call rests on the fitted dose curve; in most records, active means well fitted inhibition curve with a large enough effect; inconclusive means small, poorly fitted or top-dose-only effect, or another doubt; inactive means no such curve, though single readings can be large or run the other way. Potencies beside an inconclusive call are fits to weak or partial responses and may not hold up.
experiment: Primary qHTS for delayed death inhibitors of the malarial parasite plastid, 96 hour incubation; details: P. falciparum luciferase reporter growth; series mostly up to 28.7 µM; activity change, negative = inhibition: at the top concentration
In short: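 Two parasite generations (96 h, 37 C, 5% CO2) of compound exposure in infected erythrocytes (0.05% parasitemia, 2% hematocrit). Luciferase-reporter P. falciparum; decreased luminescence indicates inhibited growth, aimed at apicoplast-acting delayed death.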
On the % scale 0 is the no-effect control and ±100 the full control effect; potency means the concentration at half of the fitted maximal effect.

Compound | activity change, negative = inhibition | Potency
Cc1nc(N)sc1-c1csc(Nc2cccc(C(=O)O)c2)n1 | inactive: 156% | 
C=CCN1C(=O)C2C(C(=O)NCc3ccccc3)C3(C)C=CC2(O3)C1C(=O)NC(C)(C)C (stereo unspecified) | inactive: 80.5% | 
CCOC(=O)CC1=NN(c2ccccc2)C(=O)/C1=C\c1ccc(OC)cc1OC |  | inconclusive: 9.28 µM [inhibitor, single point]
CC1CCN(S(=O)(=O)c2cccc(C(=O)NC3CCCCC3)c2)CC1 | inactive: 185% | 
CCCCN(CCCC)CCNC(=O)CN1C(=O)COc2ccc(S(=O)(=O)N3CCC(C)CC3)cc21 |  | inconclusive: 18.5 µM [inhibitor, single point]
CCOc1ccc(C(=O)N2CCCC(c3nc(-c4ccc(C)o4)no3)C2)cc1 (stereo unspecified) |  | inconclusive: 0.0657 µM [inhibitor, full curve, poor fit]
CC(C)(C)c1ccc(C(=O)/C(C#N)=C/c2cccs2)cc1 | inactive: -21% | 
COc1ccccc1C(=O)NCCCNC(=O)c1ccccn1 | inactive: 13.1% | 
COc1ccc(C(=O)c2cc3cccc(OC)c3o2)cc1 | inactive: 39.4% | 
COCCN(C(=O)COC(=O)c1ccccc1Cc1ccccc1)c1c(N)n(Cc2ccccc2)c(=O)[nH]c1=O |  | inconclusive: 13.1 µM [inhibitor, single point]
COc1ccccc1C1C(C(=O)c2cc3ccccc3o2)=C(O)C(=O)N1CCN1CCOCC1 (stereo unspecified) |  | inconclusive: 9.28 µM [inhibitor, partial curve, poor fit]
Cc1cc(NC(=O)Cn2nc(C)c([N+](=O)[O-])c2C)no1 | inactive: 7.65% | 
CCOC(=O)CSc1nnc(Cn2c(=O)sc3ccccc32)n1C |  | inconclusive: 11.7 µM [inhibitor, single point]
COc1cc2[nH]c3c(N4CCC(C(N)=O)CC4)ncnc3c2cc1OC |  | inconclusive: 0.104 µM [inhibitor, full curve, poor fit]
N#Cc1ccc(NC(=O)CSc2nc3[nH]c(=O)cc(O)c3s2)cc1 |  | active: 1.47 µM
O=C(CNS(=O)(=O)c1ccc([N+](=O)[O-])cc1)N/N=C\c1ccc(O)cc1 |  | inconclusive: 9.28 µM [inhibitor, partial curve, poor fit]
Cn1cnnc1SCC(=O)Nc1ccccc1Oc1ccccc1 | inactive: -3.36% | 
O=C(NCc1ccc2c(c1)OCO2)c1ccc2c(c1)C(=O)N(Cc1cccnc1)C2=O |  | inconclusive: 13.1 µM [inhibitor, partial curve, poor fit]
CCCCNc1nc(N)ncc1[N+](=O)[O-] |  | inconclusive: 4.15 µM [inhibitor, single point]
CCOc1ccccc1N(C)C(=O)c1cn(C)c(=O)c2ccccc12 | inactive: -10.6% | 
Cc1ccn2c(NC3CCCCC3)c(C(C)C)nc2c1 |  | inconclusive: 16.5 µM [inhibitor, single point]
COC(=O)c1ccc(NC(=S)N2CCN(Cc3cccc(C)c3)CC2)cc1 |  | inconclusive: 2.94 µM [inhibitor, full curve]
COc1ccccc1NS(=O)(=O)c1cccc(NC(=O)c2[nH]c(C)c(C(C)=O)c2C)c1 |  | inconclusive: 9.28 µM [inhibitor, single point]
O=C(Nc1ccc2c(c1)OCO2)c1cnc2n(c1=O)CCS2 | inactive: 6.67% | 

Compound | activity change, negative = inhibition | Potency
COc1cccc(CNC23CC4CC(CC(C4)C2)C3)c1OCc1ccccc1 | inactive: -14.5% | 
OCC#Cc1cnc2ccccc2c1 |  | inconclusive: 5.22 µM [inhibitor, partial curve, poor fit]
COc1ccc(C(=O)NC(C)CCc2ccccc2)c(O)c1 (stereo unspecified) |  | inconclusive: 0.208 µM [inhibitor, full curve, poor fit]
CCN(CC(=O)Nc1c(F)cccc1F)C(=O)Cc1sc(C)nc1-c1ccc(F)cc1 | inactive: 2.84% | 
O=C(NCCN1CCOCC1)c1ccc2c(c1)ncn2C1CCCCC1 | inactive: 66.4% | 
COc1ccc(CN=C2NN=C(c3ccccc3)CS2)cc1 |  | inconclusive: 13.1 µM [inhibitor, single point]
C=CCn1c(CNc2ccc(C)cc2)nnc1SCC(=O)N/N=C/c1ccc(O)cc1 | inactive: 0.935% | 
CCCn1c(N)c(C(=O)CN(C)CC(=O)Nc2cc(C)ccc2C)c(=O)[nH]c1=O | inactive: 15.2% | 
COc1ccc(/C=N/NC(=O)c2cccc(S(=O)(=O)N3CCCC3)c2)cc1O |  | inconclusive: 16.5 µM [inhibitor, partial curve, poor fit]
CN1CCN(c2ccccc2NC(=O)c2c(F)cccc2F)CC1 |  | active: 3.7 µM
Cc1cc(-c2nnc(CCC(=O)NCc3cccc(C(F)(F)F)c3)o2)no1 |  | inconclusive: 0.0037 µM [inhibitor, full curve, poor fit]
O=C(c1c[nH]c(C(=O)N2CCN(c3ccccc3F)CC2)c1)c1cccc(Cl)c1Cl |  | inconclusive: 9.28 µM [inhibitor, partial curve, poor fit]
O=C(c1ccc2c(c1)OCO2)C1CCCN(Cc2ccc3cccc(F)c3n2)C1 (stereo unspecified) | inactive: 17.7% | 
CCC(=O)N(CCC1(C(C)C)CCOC(C)(C)C1)C(C)c1cccs1 (stereo unspecified) |  | inconclusive: 0.0147 µM [inhibitor, full curve, poor fit]
CCOC(=O)c1n[nH]n2c1nc(=O)c1ccccc12 |  | inconclusive: 11.7 µM [inhibitor, partial curve]
O=C([C@H](Cc1ccc(O)cc1)n1cc(CCO)nn1)N1CCNCC1 | inactive: 90.6% | 
COc1ccc(C2C3=C(Nc4ncnn42)c2ccccc2CC3)cc1OC (stereo unspecified) |  | inconclusive: 18.5 µM [inhibitor, single point]
CC1CCC(NC(=O)Cn2c3c(c(-c4ccccc4Cl)cc2=O)CCC3)CC1 (stereo unspecified) | inactive: -17.2% | 
CN(C)S(=O)(=O)c1ccc(C(=O)Nc2ccccc2C(=O)O)cc1 |  | active: 13.1 µM
Cc1c(C(=O)NCC(c2ccco2)N(C)C)oc2c(Cl)cccc12 (stereo unspecified) |  | inconclusive: 18.5 µM [inhibitor, single point]
CC(C)COc1ccc(C(=O)N(Cc2ccco2)C2CCS(=O)(=O)C2)cc1 (stereo unspecified) |  | inconclusive: 18.5 µM [inhibitor, single point]
Cc1[nH]c2ccccc2c1C(=O)C(=O)NC1CC(=O)N(c2ccc(F)cc2)C1 (stereo unspecified) | inactive: 3.53% | 
Cc1cc2nn(-c3ccc(F)cc3)nc2cc1N |  | inconclusive: 10.4 µM [inhibitor, single point]
C=CCNC(=S)Nc1ccccc1 | inactive: 37.8% | 

Compound | activity change, negative = inhibition | Potency
O=C(Nc1cccc(/C=C/c2nc3ccccc3c(=O)[nH]2)c1)c1ccccc1Cl | inactive: 2.79% | 
CC(=NCCc1c[nH]c2ccccc12)c1c(O)n(Cc2ccccc2)c(=O)[nH]c1=O |  | inconclusive: 3.7 µM [inhibitor, full curve]
CC(CCc1ccccc1)NC(=O)C(=O)N1CCOCC1 (stereo unspecified) | inactive: 39.1% | 
COc1ccc(CC(=O)Nc2ccc(F)c(F)c2F)cc1S(=O)(=O)N1CCOCC1 |  | inconclusive: 18.5 µM [inhibitor, single point]
O=C(c1cc(-c2cccc(O)c2)on1)N1CCN(C(c2ccccc2)c2ccccc2)CC1 |  | inconclusive: 18.5 µM [inhibitor, single point]
COc1cc2[nH]c(C(=O)N(C)C3CCS(=O)(=O)C3)cc2c(OC)c1OC (stereo unspecified) |  | inconclusive: 18.5 µM [inhibitor, single point]
Cn1c(=O)n(C)c2cc(NC(=O)c3cc4ccccc4o3)ccc21 |  | inconclusive: 11.7 µM [inhibitor, single point]
Cc1ccc2ccc3cccc4ccc1c2c34 | inactive: 50.9% | 
Cn1c(=O)[nH]c(=O)c2c1nc(SCCN1CCOCC1)n2CCCc1ccccc1 |  | inconclusive: 18.5 µM [inhibitor, single point]
NS(=O)(=O)c1ccc(CNC(=O)c2ccc(Cl)c(S(=O)(=O)NCc3ccccc3)c2)cc1 |  | inconclusive: 14.7 µM [inhibitor, single point]
COc1ccc(SC[C@H](Cc2ccccc2)N2CCN(CCc3ccccc3)CCC2=O)cc1 |  | active: 4.65 µM
O=C1OC(c2ccc(F)cc2)=C/C1=C\c1ccc([N+](=O)[O-])o1 | inactive: 46% | 
CC(C)CC(=O)N1CCN(S(=O)(=O)c2ccc3ccccc3c2)CC1 |  | inconclusive: 11.7 µM [inhibitor, single point]
COc1ccc(-c2nnc(SCc3nc4ccccc4c(=O)[nH]3)o2)cc1 | inactive: 108% | 
Cc1ccc(NC(=O)COc2ccc(S(=O)(=O)N3CCOCC3)cc2)cc1 |  | inconclusive: 9.28 µM [inhibitor, partial curve, poor fit]
Cc1nc2ccccc2c(=O)n1NC(=O)c1ccc(Cl)c(Cl)c1 |  | inconclusive: 3.7 µM [inhibitor, single point]
Cc1nc(C)n(CC(=O)N2CCCC(C(=O)c3cccc4ccccc34)C2)n1 (stereo unspecified) |  | inconclusive: 13.1 µM [inhibitor, single point]
CN1C(=O)S/C(=C/c2ccc(OCc3cccc(C(=O)O)c3)cc2)C1=O | inactive: 118% | 
Fc1nc(N2CCCC2)c(F)c(Oc2ccccc2Oc2c(F)c(F)nc(N3CCCC3)c2F)c1F |  | inconclusive: 13.1 µM [inhibitor, partial curve]
O=C(N/N=C/c1ccccn1)c1ccc([N+](=O)[O-])cc1 |  | active: 8.28 µM
O=C(CSc1n[nH]c(-c2ccncc2)n1)Nc1ccc(Br)cc1 |  | inconclusive: 11.7 µM [inhibitor, partial curve, poor fit]
Cc1c(N=Cc2c(O)n(Cc3ccc(F)cc3)c(=O)[nH]c2=O)c(=O)n(-c2ccccc2)n1C |  | inconclusive: 5.86 µM [inhibitor, partial curve, poor fit]
CC(C)(C)c1nnc(NC(=O)Nc2ccc(Cl)cc2)s1 |  | inconclusive: 2.08 µM [inhibitor, single point]

Part of the list above, as tab-separated lines:
Compound	activity change, negative = inhibition	Potency
O=C(Nc1cccc(/C=C/c2nc3ccccc3c(=O)[nH]2)c1)c1ccccc1Cl	inactive: 2.79%	
CC(=NCCc1c[nH]c2ccccc12)c1c(O)n(Cc2ccccc2)c(=O)[nH]c1=O		inconclusive: 3.7 µM [inhibitor, full curve]
CC(CCc1ccccc1)NC(=O)C(=O)N1CCOCC1 (stereo unspecified)	inactive: 39.1%	
COc1ccc(CC(=O)Nc2ccc(F)c(F)c2F)cc1S(=O)(=O)N1CCOCC1		inconclusive: 18.5 µM [inhibitor, single point]
O=C(c1cc(-c2cccc(O)c2)on1)N1CCN(C(c2ccccc2)c2ccccc2)CC1		inconclusive: 18.5 µM [inhibitor, single point]
COc1cc2[nH]c(C(=O)N(C)C3CCS(=O)(=O)C3)cc2c(OC)c1OC (stereo unspecified)		inconclusive: 18.5 µM [inhibitor, single point]
Cn1c(=O)n(C)c2cc(NC(=O)c3cc4ccccc4o3)ccc21		inconclusive: 11.7 µM [inhibitor, single point]
Cc1ccc2ccc3cccc4ccc1c2c34	inactive: 50.9%	
Cn1c(=O)[nH]c(=O)c2c1nc(SCCN1CCOCC1)n2CCCc1ccccc1		inconclusive: 18.5 µM [inhibitor, single point]
NS(=O)(=O)c1ccc(CNC(=O)c2ccc(Cl)c(S(=O)(=O)NCc3ccccc3)c2)cc1		inconclusive: 14.7 µM [inhibitor, single point]
COc1ccc(SC[C@H](Cc2ccccc2)N2CCN(CCc3ccccc3)CCC2=O)cc1		active: 4.65 µM
O=C1OC(c2ccc(F)cc2)=C/C1=C\c1ccc([N+](=O)[O-])o1	inactive: 46%	
CC(C)CC(=O)N1CCN(S(=O)(=O)c2ccc3ccccc3c2)CC1		inconclusive: 11.7 µM [inhibitor, single point]
COc1ccc(-c2nnc(SCc3nc4ccccc4c(=O)[nH]3)o2)cc1	inactive: 108%	
Cc1ccc(NC(=O)COc2ccc(S(=O)(=O)N3CCOCC3)cc2)cc1		inconclusive: 9.28 µM [inhibitor, partial curve, poor fit]
Cc1nc2ccccc2c(=O)n1NC(=O)c1ccc(Cl)c(Cl)c1		inconclusive: 3.7 µM [inhibitor, single point]

— PubChem BioAssay AID504834 (National Center for Advancing Translational Sciences (NCATS), 2011)
